Laboratory results taken from publication PMC3849192, “A Simple Method for Assessing Free Brain/Free Plasma Ratios Using an In Vitro Model of the Blood Brain Barrier” (PLoS ONE, 2013).

Assays:
[1] = male, Sprague-Dawley, rat
Procedure: Rats (male Sprague-Dawley) were decapitated under isoflurane anesthesia and the brains were removed carefully and immersed in ice-cold oxygenated physiological buffer at pH7.4. A 6 mm coronal section was cut with a razor and mounted with cyanoacrylate glue onto the tray of the microslicer (DTK-Zero 1 Microslicer, Dosak) after which six to eight 300 µm coronal slices from striatal areas were prepared. […] The compounds were dissolved at 1 µM in the buffer and the solution was incubated with the slice for 5 h.
After 5 h, the brain slices were weighed and homogenized in 9 volumes (w/v) of ECF buffer with a sonicator (SONICS VCX 500 and VCX 130). The slice homogenates in ECF buffer were stored at −20°C prior to analysis. The concentrations of the test compound in the brain slice homogenate and in the ECF buffer was determined by LC-MS/MS.
The unbound volume of distribution Vu,brain, or free fraction fu,brain was calculated according to the following equations: [drawing 1] [drawing 2] where Cslice, CECF and V0 are amount of drug in the slice, the drug concentration in the ECF (representing the drug concentration in the brain ECF, i.e. the free concentration), and the water adhesion of the brain slice. V0 has been estimated using ^14C -inulin in a separate experiment in which brain slices were incubated for 1, 2, and 4 min. […]

[2] = Procedure: The degree of brain binding was assessed by equilibrium dialysis. Brain homogenate (10%) was spiked with test compound at 1 µM in triplicate. […] The plate was then placed in a shaker/incubator to equilibrate for 18 hrs at 37°C. […] After the addition of 50 µl of buffer to the brain homogenate samples, 150 µl of acetonitrile was added to each sample. Finally, 50 µl of water was added to all buffer and brain homogenate samples. The plates were centrifuged and the supernatant analyzed by LC-MS/MS.

SMILES | fubrain (slice) Mean [1] | fubrain (homog.) Mean [2]
CN1CC[C@]23c4c5ccc(O)c4O[C@H]2[C@@H](O)C=C[C@H]3[C@H]1C5 [Morphine] | 0.3700 | 0.5000
CN1C(=O)CN=C(c2ccccc2)c2cc(Cl)ccc21 [Diazepam] | 0.0500 | 0.0500
